These are yes or no findings as the source states them, for the method shown. Binding seen in cells or lysates may run through a third protein. A yes stands for co-enrichment or nearness to the bait. Other partners may have been found.
Biological target: T1, Ubiquitin-specific peptidase 8 (USP8), endogenous (human (endogenous in HCCC9810 and RBE)) (UniProt P40818)
T1 sequence: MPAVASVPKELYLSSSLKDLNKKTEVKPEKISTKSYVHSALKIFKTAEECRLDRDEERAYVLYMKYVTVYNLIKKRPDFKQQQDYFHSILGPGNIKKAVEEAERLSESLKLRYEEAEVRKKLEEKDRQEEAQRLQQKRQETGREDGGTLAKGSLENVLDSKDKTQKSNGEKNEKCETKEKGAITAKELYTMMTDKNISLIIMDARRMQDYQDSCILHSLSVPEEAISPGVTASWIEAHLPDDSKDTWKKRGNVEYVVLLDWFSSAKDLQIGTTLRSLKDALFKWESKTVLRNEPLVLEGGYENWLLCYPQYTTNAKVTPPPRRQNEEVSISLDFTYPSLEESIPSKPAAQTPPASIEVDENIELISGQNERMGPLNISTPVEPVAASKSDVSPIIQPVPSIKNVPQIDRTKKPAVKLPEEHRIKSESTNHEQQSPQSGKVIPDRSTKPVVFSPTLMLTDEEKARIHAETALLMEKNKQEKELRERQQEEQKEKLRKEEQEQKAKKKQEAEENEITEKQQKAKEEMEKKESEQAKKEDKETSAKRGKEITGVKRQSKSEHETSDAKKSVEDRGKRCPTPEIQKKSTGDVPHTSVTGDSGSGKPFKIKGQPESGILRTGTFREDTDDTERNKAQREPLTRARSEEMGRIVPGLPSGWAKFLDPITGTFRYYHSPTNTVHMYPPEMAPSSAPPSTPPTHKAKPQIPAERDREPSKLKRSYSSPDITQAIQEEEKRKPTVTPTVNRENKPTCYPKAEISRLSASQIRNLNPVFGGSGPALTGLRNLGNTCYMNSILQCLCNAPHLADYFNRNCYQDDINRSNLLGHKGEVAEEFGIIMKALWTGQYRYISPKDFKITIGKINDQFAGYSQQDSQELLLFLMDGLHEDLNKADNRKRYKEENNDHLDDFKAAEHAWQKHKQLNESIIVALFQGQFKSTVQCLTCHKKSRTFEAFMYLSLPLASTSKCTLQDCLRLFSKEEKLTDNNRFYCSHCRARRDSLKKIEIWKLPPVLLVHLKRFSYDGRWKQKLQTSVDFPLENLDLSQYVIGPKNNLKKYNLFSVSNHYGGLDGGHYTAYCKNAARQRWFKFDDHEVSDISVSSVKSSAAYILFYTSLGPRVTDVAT
Assay: affinity purification with mass spectrometry; HCCC9810 cells lysed in RIPA buffer with protease inhibitors, precleared with rabbit IgG 4 h, overnight immunoprecipitation with USP8 antibody and Protein A/G PLUS-Agarose at 4 °C, LC-MS

binding: binds
B1: O-GlcNAc transferase (OGT), endogenous (enzyme, UniProt O15294 1-1046)
chain: MASSVGNVADSTEPTKRMLSFQGLAELAHREYQAGDFEAAERHCMQLWRQEPDNTGVLLLLSSIHFQCRRLDRSAHFSTLAIKQNPLLAEAYSNLGNVYKERGQLQEAIEHYRHALRLKPDFIDGYINLAAALVAAGDMEGAVQAYVSALQYNPDLYCVRSDLGNLLKALGRLEEAKACYLKAIETQPNFAVAWSNLGCVFNAQGEIWLAIHHFEKAVTLDPNFLDAYINLGNVLKEARIFDRAVAAYLRALSLSPNHAVVHGNLACVYYEQGLIDLAIDTYRRAIELQPHFPDAYCNLANALKEKGSVAEAEDCYNTALRLCPTHADSLNNLANIKREQGNIEEAVRLYRKALEVFPEFAAAHSNLASVLQQQGKLQEALMHYKEAIRISPTFADAYSNMGNTLKEMQDVQGALQCYTRAIQINPAFADAHSNLASIHKDSGNIPEAIASYRTALKLKPDFPDAYCNLAHCLQIVCDWTDYDERMKKLVSIVADQLEKNRLPSVHPHHSMLYPLSHGFRKAIAERHGNLCLDKINVLHKPPYEHPKDLKLSDGRLRVGYVSSDFGNHPTSHLMQSIPGMHNPDKFEVFCYALSPDDGTNFRVKVMAEANHFIDLSQIPCNGKAADRIHQDGIHILVNMNGYTKGARNELFALRPAPIQAMWLGYPGTSGALFMDYIITDQETSPAEVAEQYSEKLAYMPHTFFIGDHANMFPHLKKKAVIDFKSNGHIYDNRIVLNGIDLKAFLDSLPDVKIVKMKCPDGGDNADSSNTALNMPVIPMNTIAEAVIEMINRGQIQITINGFSISNGLATTQINNKAATGEEVPRTIIVTTRSQYGLPEDAIVYCNFNQLYKIDPSTLQMWANILKRVPNSVLWLLRFPAVGEPNIQQYAQNMGLPQNRIIFSPVAPKEEHVRRGQLADVCLDTPLCNGHTTGMDVLWAGTPMVTMPGETLASRVAASQLTCLGCLELIAKNRQEYEDIAVKLGTDLEYLKKVRGKVWKQRISSPLFNTKQYTMELERLYLQMWEHYAAGNKPDHMIKPVEVTESA

— paper PMC11229306
